# At least one compound was matched to its structure with a doubt left.
# Test system: C57BL/6 mice expressing human GLP-1R (hGLP-1R)
# Assay: Food intake in humanized mouse model
# Assay type: in vivo
# Details: hGLP-1R mice, relative to vehicle control; Compound 2 10, 30, 60 mg/kg PO
# Procedure: The ability of compounds disclosed herein to modify the food intake of C57BL/6 mice expressing human GLP-1R (hGLP-1R) was evaluated.
# The dose protocol used in this study is described in Table 6.
# Acclimation and grouping: Mice were acclimated for QD PO dosing with vehicle for 4 days, baseline body weight and food intake were measured for 4 consecutive days. Animals were allocated into 8 groups based on body weight and 3rd day's food intake.
# Dose body weight and food intake measurement: All animals were placed in clean cages with sawdust bedding and fasted overnight, mice were dosed with vehicle or test compound in the morning. All group's food was added 15 minutes post dosing, food remaining was recorded at 2-, 4-, 6-, 8-, 10- and 24-h post dosing. (FIG. 4) Body weight was determined on a daily basis during the study.
# Data processing and analysis: Manual data were transferred into an excel spreadsheet. All values were expressed as mean±S.E.M. The significances of the differences among groups and within groups are evaluated by one-way or two-way ANOVA using Graph Pad statistic software. A p-value of less than 0.05 was considered statistically significant.
compound,measurement,value
"CCCCCCCCCCCCCCCC(=O)N[C@@H](CCC(=O)NCCCC[C@H](NC(=O)[C@H](C)NC(=O)[C@H](C)NC(=O)[C@H](CCC(N)=O)NC(=O)CNC(=O)[C@H](CCC(=O)O)NC(=O)[C@H](CC(C)C)NC(=O)[C@H](Cc1ccc(O)cc1)NC(=O)[C@H](CO)NC(=O)[C@H](CO)NC(=O)[C@@H](NC(=O)[C@H](CC(=O)O)NC(=O)[C@H](CO)NC(=O)[C@@H](NC(=O)[C@H](Cc1ccccc1)NC(=O)[C@@H](NC(=O)CNC(=O)[C@H](CCC(=O)O)NC(=O)[C@H](C)NC(=O)[C@@H](N)Cc1cnc[nH]1)[C@@H](C)O)[C@@H](C)O)C(C)C)C(=O)N[C@@H](CCC(=O)O)C(=O)N[C@@H](Cc1ccccc1)C(=O)N[C@H](C(=O)N[C@@H](C)C(=O)N[C@@H](Cc1c[nH]c2ccccc12)C(=O)N[C@@H](CC(C)C)C(=O)N[C@H](C(=O)N[C@@H](CCCNC(=N)N)C(=O)NCC(=O)N[C@@H](CCCNC(=N)N)C(=O)NCC(=O)O)C(C)C)[C@@H](C)CC)C(=O)O [liraglutide, reference compound]",food intake,reduction in food intake

# — patent US12522596B2, “Compounds as GLP-1R agonists” (Terns Pharmaceuticals, Inc., priority 2021, dated 2026)
